PubChem BioAssay AID1224826 | NIAID – 2016
Screen: 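Regulators of Tlr4 signalling leading to Tnf-alpha expression in macrophages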 (primary screen). Cell system: RAW264.7 G9 macrophages from mouse bearing reporters for p65 (GFP) and the Tnf promoter (mCherry). Reagents: siRNA pool against mouse genes, 100 nM. Timing: 16 h of LPS stimulation, after 2 days of siRNA transfection. Treatment: bacterial lipopolysaccharide (Salmonella minnesota R595), 10 ng/ml. Measured: 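Nuclear mCherry signal of the Tnf promoter reporter measured by imaging after background removal, scaled to each plate median and turned into robust z-scores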. Scale: Tnf reporter robust z-score: higher = stronger Tnf promoter reporter signal after LPS; Tnf reporter intensity: higher = stronger Tnf promoter reporter signal. Call rule: 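a well counts as active at a score of -1.3 or below (Tlr4 knock-down control median) or above 3 (raised signal); controls and wells holding fewer than 50 cells are excluded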. Meaning of the calls: active = Tnf reporter clearly lowered or raised; inactive = no clear change in Tnf reporter.
The deposit covers about 17,000 reagents; this is a part drawn at random. About 1,110 of them (6.6%) were called active. 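Active means lowered or raised reporter signal; replicate intensities are raw and not normalised per plate.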 Unmarked entries are inactive.

target gene	Tnf reporter robust z-score	fewer than 50 cells in well	Tnf reporter intensity, replicate 1	Tnf reporter intensity, replicate 2
Snap47 (GeneID 67826)	0.5	enough cells in well	325	84.9
Cyb5a (GeneID 109672)	0.37	enough cells in well	225	267
Cdcp3 (GeneID 71395)	0.57	enough cells in well	234	154
Insl3 (GeneID 16336)	-0.47	enough cells in well	214	118
Wnt16 (GeneID 93735)	1.53	enough cells in well	167	213
4931403M11Rik (GeneID 70955)		fewer than 50 cells per well; well left out of calls	151	87.5
Irx1 (GeneID 16371)	2.37	enough cells in well	299	268
Dusp18 (GeneID 75219)	-1.08	enough cells in well	139	139
Tbc1d15 (GeneID 66687)	-0.21	enough cells in well	137	62.6

Sorted by “Tnf reporter robust z-score” (lowest first): some entries from above.
target gene	Tnf reporter robust z-score	fewer than 50 cells in well	Tnf reporter intensity, replicate 1	Tnf reporter intensity, replicate 2
Insl3 (GeneID 16336)	-0.47	enough cells in well	214	118
Wnt16 (GeneID 93735)	1.53	enough cells in well	167	213

Continued:
target gene	Tnf reporter robust z-score	fewer than 50 cells in well	Tnf reporter intensity, replicate 1	Tnf reporter intensity, replicate 2
Mier3 (GeneID 218613)	1.27	enough cells in well	329	326
Slc26a4 (GeneID 23985)	0.03	enough cells in well	199	159
Tmed5 (GeneID 73130)		fewer than 50 cells per well; well left out of calls	60.8	64.3
Kif5c (GeneID 16574)	0.48	enough cells in well	232	208
Ap3b1 (GeneID 11774)	-0.98	enough cells in well	122	103
Mphosph8 (GeneID 75339)		fewer than 50 cells per well; well left out of calls	271	84.6
Cdc20 (GeneID 107995)	-1.14	enough cells in well	158	122
Tsr2 (GeneID 69499)	2.54	enough cells in well	282	71.5
Slc39a1 (GeneID 30791)		fewer than 50 cells per well; well left out of calls	51.5	25.9
Chd1 (GeneID 12648)	0.66	enough cells in well	276	278
Cep112 (GeneID 76380)		fewer than 50 cells per well; well left out of calls	88.9	29
Rnasel (GeneID 24014)	-0.17	enough cells in well	177	159
Kcnq4 (GeneID 60613)	-1.53 (active)	enough cells in well	105	80.1
Specc1l (GeneID 74392)		fewer than 50 cells per well; well left out of calls	88.4	73.6
Clec7a (GeneID 56644)	-0.39	enough cells in well	135	163
